Laboratory results from paper PMC11337767.
Results are given in words; binding and its absence hold for the method and conditions named. Binding seen in cells or lysates may run through a third protein.

Sequences of proteins named here, by UniProt entry; tags and fusion partners are left off. A change or cut given only in a name is not applied to a line headed by its entry.
UniProt P56747: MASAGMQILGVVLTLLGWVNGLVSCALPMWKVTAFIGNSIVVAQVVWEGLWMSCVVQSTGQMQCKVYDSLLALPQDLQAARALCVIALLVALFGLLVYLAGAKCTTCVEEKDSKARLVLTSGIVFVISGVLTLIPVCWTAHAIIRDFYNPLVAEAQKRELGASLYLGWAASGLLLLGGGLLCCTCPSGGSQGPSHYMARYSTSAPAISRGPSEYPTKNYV
UniProt Q13887: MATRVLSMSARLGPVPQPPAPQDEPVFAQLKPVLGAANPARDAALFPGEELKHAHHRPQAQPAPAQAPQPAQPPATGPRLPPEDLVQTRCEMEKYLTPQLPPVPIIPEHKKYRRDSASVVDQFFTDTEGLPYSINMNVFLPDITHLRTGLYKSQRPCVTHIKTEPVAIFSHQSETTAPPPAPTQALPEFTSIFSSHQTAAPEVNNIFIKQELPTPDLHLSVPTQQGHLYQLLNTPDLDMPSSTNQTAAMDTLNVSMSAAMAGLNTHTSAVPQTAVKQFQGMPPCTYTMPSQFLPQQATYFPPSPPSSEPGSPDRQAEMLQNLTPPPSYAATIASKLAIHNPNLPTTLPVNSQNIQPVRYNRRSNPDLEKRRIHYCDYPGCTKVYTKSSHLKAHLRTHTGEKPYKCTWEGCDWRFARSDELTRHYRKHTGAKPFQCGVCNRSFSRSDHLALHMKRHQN
UniProt Q86UL8: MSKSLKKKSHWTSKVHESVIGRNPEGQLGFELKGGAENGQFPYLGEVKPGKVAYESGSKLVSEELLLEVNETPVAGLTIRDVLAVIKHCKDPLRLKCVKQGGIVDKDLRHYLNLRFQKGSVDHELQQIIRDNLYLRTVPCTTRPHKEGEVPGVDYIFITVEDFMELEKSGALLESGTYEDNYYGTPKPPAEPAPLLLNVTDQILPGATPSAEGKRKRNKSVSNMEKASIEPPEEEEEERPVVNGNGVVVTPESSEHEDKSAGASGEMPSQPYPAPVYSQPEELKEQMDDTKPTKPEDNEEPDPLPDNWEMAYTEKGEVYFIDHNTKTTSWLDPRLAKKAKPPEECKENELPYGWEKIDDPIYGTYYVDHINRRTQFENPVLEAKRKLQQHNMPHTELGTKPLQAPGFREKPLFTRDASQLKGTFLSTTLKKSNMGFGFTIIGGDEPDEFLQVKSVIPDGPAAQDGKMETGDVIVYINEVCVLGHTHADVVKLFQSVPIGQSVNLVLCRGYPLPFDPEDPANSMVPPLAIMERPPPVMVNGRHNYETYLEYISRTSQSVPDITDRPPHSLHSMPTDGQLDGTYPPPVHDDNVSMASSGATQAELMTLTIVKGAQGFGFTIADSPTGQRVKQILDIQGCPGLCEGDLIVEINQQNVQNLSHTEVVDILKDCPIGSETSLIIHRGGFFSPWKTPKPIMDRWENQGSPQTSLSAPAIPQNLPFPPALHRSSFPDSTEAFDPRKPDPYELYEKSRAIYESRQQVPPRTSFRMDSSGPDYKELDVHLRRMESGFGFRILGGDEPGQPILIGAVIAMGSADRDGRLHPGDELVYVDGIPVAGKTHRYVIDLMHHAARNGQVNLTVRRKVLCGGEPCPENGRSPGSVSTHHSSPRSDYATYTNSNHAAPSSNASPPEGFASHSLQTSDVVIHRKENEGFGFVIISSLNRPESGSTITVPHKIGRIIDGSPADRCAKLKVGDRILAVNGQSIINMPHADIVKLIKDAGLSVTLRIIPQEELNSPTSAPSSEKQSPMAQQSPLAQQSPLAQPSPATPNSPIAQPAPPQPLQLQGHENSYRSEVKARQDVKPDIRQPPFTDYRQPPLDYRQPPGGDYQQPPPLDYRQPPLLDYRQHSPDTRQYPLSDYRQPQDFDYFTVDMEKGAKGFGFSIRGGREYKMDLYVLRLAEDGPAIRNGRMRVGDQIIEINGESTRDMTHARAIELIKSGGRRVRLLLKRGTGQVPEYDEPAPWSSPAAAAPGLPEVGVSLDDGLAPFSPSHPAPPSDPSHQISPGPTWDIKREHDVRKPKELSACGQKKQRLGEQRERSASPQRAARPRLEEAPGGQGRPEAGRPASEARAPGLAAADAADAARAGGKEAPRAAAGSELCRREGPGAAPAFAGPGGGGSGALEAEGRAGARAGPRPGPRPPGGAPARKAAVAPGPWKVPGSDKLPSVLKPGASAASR

Biological target: CLDN6^δPBM (PBM mutant of CLDN6) (UniProt P56747)
Assay: co-IP; MDA-MB-231/CLDN6 cells and MDA-MB-231/CLDN6^δPBM cells

With KLF5 (from UniProt Q13887 1-457) the binding was “no binding”.
MAGI2 (from UniProt Q86UL8 1-1455) was tested, and the binding was “no binding”.
